Data published in PubChem BioAssay AID1439 (NMMLSC, 2008).
About 770 (0.35%) of roughly 220,000 compounds were called active. This list was built around the results that the source calls inconclusive (neither active nor inactive); the mix of calls is not that of the screen. Cut-off read from the data, not from the text of the source: active = binding response below about 49% or above about 150%; inconclusive = no clear call, values can overlap the other calls; inactive = in between.

The chains behind the UniProt entries cited, without tags or fusion partners.
UniProt P09471, whole entry, looked up: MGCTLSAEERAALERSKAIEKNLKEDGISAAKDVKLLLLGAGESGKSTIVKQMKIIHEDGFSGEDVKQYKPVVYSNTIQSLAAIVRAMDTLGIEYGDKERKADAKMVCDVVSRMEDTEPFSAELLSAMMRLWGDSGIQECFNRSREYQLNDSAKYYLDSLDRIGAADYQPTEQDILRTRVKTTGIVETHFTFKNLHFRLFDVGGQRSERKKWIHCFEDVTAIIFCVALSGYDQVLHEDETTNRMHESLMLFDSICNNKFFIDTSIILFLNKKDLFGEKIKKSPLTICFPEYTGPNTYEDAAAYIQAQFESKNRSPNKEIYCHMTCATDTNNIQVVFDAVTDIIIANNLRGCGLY

Each compound was assayed against Guanine nucleotide-binding protein G(o) subunit alpha (Homo sapiens) (UniProt P09471) (assay: RGS7-Galphao binding modulators, primary screen, biochemical, multiplexed bead flow cytometry (AID 1439;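 note: fluorescent Galphao held in activated GDP-AlF4 state binding bead-coupled RGS7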)). Conditions: at 10 µM, actives lie on both sides.

Row | SMILES | binding response (% of control)
1 | Cc1cccc(C(CC(=O)NCCc2ccccc2)c2ccccc2)c1O (centres undefined) | inconclusive: 112%
2 | CN(C)/C=C/C1=C([N+](=O)[O-])C(c2cccc([N+](=O)[O-])c2)NC(=O)N1 (centres undefined) | inconclusive: 84.7%
3 | Cc1ccsc1C1C2=C(CCCC2=O)Nc2ncnn21 (centres undefined) | inactive: 99.3%
4 | CN(C)CCCN(Cc1cc2cc3c(cc2[nH]c1=O)OCCO3)C(=O)NC1CCCCC1 | inconclusive: 74.3%
5 | CCOC(=O)c1cc(C(=O)OCC)c(=O)[nH]c1N1CCCCC1 | inconclusive: 83%
6 | COC(=O)CCCC1=CC2=CC(=O)C(C)(OC(=O)c3cccs3)C(=O)C2=CN1CCN1CCOCC1 (centres undefined) | inconclusive: 89.5%
7 | Cc1nc(C)c(Oc2ccc(Cl)cc2Cl)c(=O)[nH]1 | inconclusive: 28.7%
8 | Cc1cc(C(=O)O/N=C(\N)c2ccc(C(C)(C)C)cc2)no1 | inconclusive: 116%
9 | O=C(COc1ccccc1Cl)Nc1ccc(CN2CCCCC2)cc1 | inconclusive: 97.6%
10 | COc1ccc(NC(=O)Cn2cc(S(=O)(=O)Cc3ccccc3)c3ccccc32)c(OC)c1 | inactive: 89.6%
11 | CCOC(=O)c1c(C)[nH]c(C(=O)CN2CCN(CC)CC2)c1C | inconclusive: -5.71%
12 | CN(C)/C=C(\C(=O)c1ccccc1)c1nnnn1-c1ccc(F)cc1 | inconclusive: 103%
13 | Fc1cccc(F)c1-n1c(CN2CCCCC2)csc1=S | inconclusive: 102%
14 | Nc1sc(-c2ccccc2)cc1C(=O)N/N=C/c1ccc(Cl)cc1 | inconclusive: 154%
15 | CC1C=CCC2C(=O)N(c3cc(Cl)ccc3O)C(=O)C12 (centres undefined) | inactive: 107%
16 | Cc1ccc(-c2cc(C(=O)O)c3ccccc3n2)c(C)c1 | inconclusive: 103%
17 | Cc1cc(-c2nnc3n2N=C(c2ccccc2)CS3)n[nH]1 | inconclusive: 583%
18 | COc1ccc(C(C)(C)C)cc1NC(=O)CNc1cccc2ccccc12 | inactive: 103%
19 | CCNc1nc(Oc2ccc(OC)cc2)cc(C(F)(F)F)n1 | inconclusive: 104%
20 | Clc1ccc(Nc2ccc(Cl)nn2)cc1 | inconclusive: -57%
21 | Cc1ccccc1-c1ccc(=O)n(CC(=O)Nc2ccc(C(=O)N3CCCC3)cc2)n1 | inactive: 96%
22 | Cc1ccc(C(=O)C2COC(=O)C2)cc1 (centres undefined) | inactive: 101%

Row | SMILES | binding response (% of control)
23 | Cc1ccc(-c2c[n+](CC(=O)Nc3ccccc3C)c3n2CCC3)cc1 | inconclusive: 97.3%
24 | Cc1ccc(OCC(=O)Nn2c(C)nc3ccccc3c2=O)c(C(C)C)c1 | inactive: 100%
25 | Cc1nnc(SCC(=O)NCC(=O)Nc2ccc(F)c(F)c2F)n1Cc1ccccc1 | inconclusive: 93.5%
26 | Cn1c(/C=C/N(Cc2ccccc2)c2ccccc2)c([N+](=O)[O-])c(=O)n(C)c1=O | inconclusive: 86.5%
27 | COc1cc(OC)cc(C(=O)O/N=C(\N)c2ccccn2)c1 | inconclusive: 107%
28 | COc1cccc(C(=O)N2CCN(C(=O)Cc3ccccc3)CC2)c1 | inactive: 107%
29 | COc1ccc(-n2c(=S)[nH]c3sc(-c4ccccc4)cc3c2=O)c(OC)c1 | inconclusive: 106%
30 | COc1ccc(S(=O)(=O)NCCc2nnc3ccc(SCC(=O)Nc4nc(C)cs4)nn23)cc1 | inactive: 98.7%
31 | Cc1ccc(NC(=O)CSc2nc3ccccc3c(=O)n2CCCN2CCCCC2)cc1Cl | inactive: 121%
32 | CCS(=O)(=O)N1CCN(c2ccc(C(=O)N3CCOCC3)cc2[N+](=O)[O-])CC1 | inconclusive: 105%
33 | Cc1ccc(C)c(C2=NNC(=NCc3ccccc3)SC2)c1 | inconclusive: 103%
34 | CN(C)S(=O)(=O)c1ccc(NC(=O)c2ccc([N+](=O)[O-])cc2)cc1 | inconclusive: 99%
35 | COC(=O)c1ccc(Cn2cc([N+](=O)[O-])cn2)cc1 | inconclusive: -54.4%
36 | COc1ccccc1NC(=O)Cn1nc(-c2ccc(Cl)cc2)c2ccccc2c1=O | inactive: 99.9%
37 | COC(=O)C(=Cc1ccccc1[N+](=O)[O-])C(=O)OC | inconclusive: 86.2%
38 | CC(=O)c1ccc(NC(=S)Nc2cccc(S(=O)(=O)Nc3c(C)n(C)n(-c4ccccc4)c3=O)c2)cc1 | inconclusive: 73%
39 | COc1ccccc1NS(=O)(=O)c1cccc(-n2c(O)c(C=Nc3ccccc3C(=O)O)c3ccccc3c2=O)c1 | inconclusive: -14.6%
40 | CC(C)NC(=O)NNC(=O)c1nn(-c2ccc(F)cc2)ccc1=O | inconclusive: 189%
41 | CC(C)c1nnc(SCC(=O)N2CCc3ccccc32)n1N | inconclusive: 87.5%
42 | Cc1c(NC(=O)c2cc3c(s2)CCCC3)c(=O)n(-c2ccccc2)n1C | inconclusive: 99.7%
43 | S=c1[nH]nc(-c2ccncc2)n1/N=C/c1cccc(Cl)c1 | inconclusive: 128%
44 | CCCCn1c(=O)[nH]c(=O)c2c(C(=O)OCC)cc(-c3cccs3)nc21 | inconclusive: 81.4%

Reprinted at random: 2 entries already listed.
Row | SMILES | binding response (% of control)
24 | Cc1ccc(OCC(=O)Nn2c(C)nc3ccccc3c2=O)c(C(C)C)c1 | inactive: 100%
27 | COc1cc(OC)cc(C(=O)O/N=C(\N)c2ccccn2)c1 | inconclusive: 107%
